For some assays here: At least one compound was matched to its structure with a doubt left. Some entries share one result that the patent states for a list of compounds. Some compounds share one range, which may span the group rather than tell each member.
Legend:
[1] = tested on: Phytophthora infestans; type: in vivo; settings: tomato cv. Roter Gnom; curative 200 ppm spray and preventive-systemic 60 ppm on soil, both tests; untreated infected control 100%
[2] = tested on: Erysiphe graminis; settings: barley; residual-protective 0.02% spray, systemic 0.002% on soil; 10 days after infection
[3] = tested on: Botrytis cinerea; assay: Residual-protective activity against Botrytis cinerea on apple fruits; type: in vivo; settings: artificially damaged apples; 0.02% of active ingredient; one week
[4] = tested on: Podosphaera leucotricha; assay: Residual-protective activity against Podosphaera leucotricha on apple shoots; settings: apple cuttings; 0.06% of active ingredient; 12 days after infection; control plants 100% infested
[5] = tested on: Puccinia graminis; type: in vivo; settings: wheat; residual-protective 0.02% spray, systemic 0.006% on soil; 12 days after infection

SMILES: C/N=C(SC)/C(=N/OC)c1ccccc1CON=C(SC)c1ccc(Cl)cc1 [Compound 2.13]
- infestation (attack) [1]: 0-5%

SMILES: CON=C(C(=N)OC)c1ccccc1CON=C(c1ccc(Cl)cc1)C1CC1 [Compound 1.24]
- infestation (attack) [1]: 0-5%
- disease infestation [2]: 0-5%

SMILES: C/N=C(NC)/C(=N/OC)c1ccccc1CO/N=C(\C)c1ccc(Cl)cc1 [Compound 3.11]
- infestation (attack) [1]: 0-5%

SMILES: CNC(=S)C(=NOC)c1ccccc1CON=C(C)c1ccc(OC)c(F)c1 [Compound 4.93]
- infestation (attack) [1]: 0-5%
- disease infestation [2]: 0-5%
- infestation [3]: 0-5%

SMILES: [H]/N=C(OC)/C(=N/OC)c1ccccc1CON=C(OC)c1cccc(C(F)(F)F)c1 [Compound 1.116]
- infestation (attack) [1]: 0-5%

SMILES: [H]/N=C(OC)/C(=N/OC)c1ccccc1CON=C(C)c1ccc(Cl)cc1 [Compound 1.13]
- infestation (attack) [1]: 0-5%

SMILES: CCSC(=NC)C(=NOC)c1ccccc1CON=C(C)c1cccc(C(F)(F)F)c1 [Compound 2.101]
- infestation (attack) [1]: 0-5%
- disease infestation (fungus attack) [4]: 0-5%
- disease infestation [2]: 0-5%
- infestation [3]: 0-5%

SMILES: C/N=C(SC)/C(=N/OC)c1ccccc1CO/N=C(\C)c1cccc(C(F)(F)F)c1 [Compound 2.57, N,S-Dimethyl-2-[2-(methyl(3-trifluoromethylphenyl)oximinomethyl)phenyl]2-methoximinothioacetimidate]
- fungus infestation [5]: 10-0
- infestation (attack) [1]: 0-5%

SMILES: C/N=C(OC)/C(=N/OC)c1ccccc1CON=C(C)c1cccc(C(F)(F)F)c1 [Compound 1.112]
- infestation (attack) [1]: 0-5%

SMILES: CN=C(SC)C(=NOC)c1ccccc1CON=C(c1ccc(Cl)cc1)C1CC1 [Compound 2.12]
- infestation (attack) [1]: 0-5%
- disease infestation [2]: 0-5%

SMILES: CCOC(=N\C)/C(=N/OC)c1ccccc1CON=C(C)c1ccc(Cl)cc1 [Compound 1.14]
- infestation (attack) [1]: 0-5%

SMILES: C/N=C(OC)/C(=N/OC)c1ccccc1CON=C(SC)c1ccc2c(c1)OCO2 [Compound 1.86]
- infestation (attack) [1]: 0-5%

SMILES: CNC(=S)C(=NOC)c1ccccc1CON=C(c1ccc(Cl)cc1)C1CC1 [Compound 4.11]
- infestation [3]: 0-5%

SMILES: CON=C(C(=N)OC)c1ccccc1CON=C(C)c1ccc(OC)c(F)c1 [Compound 1.160]
- infestation (attack) [1]: 0-5%
- disease infestation [2]: 0-5%

SMILES: C=CCSC(=NC)C(=NOC)c1ccccc1CON=C(c1ccc(Cl)cc1)C1CC1 [Compound 2.115]
- disease infestation (fungus attack) [4]: 0-5%
- infestation [3]: 0-5%

SMILES: CNC(=S)/C(=N/OC)c1ccccc1CO/N=C(\C)c1cccc(C(F)(F)F)c1 [Compound 4.51, N-methyl-2-[2-(methyl(3-trifluoromethylphenyl)oximinomethyl)phenyl]-2-methoximinothioacetamide]
- infestation (attack) [1]: 0-5%
